Results on two sequences are retold here after patent publication US20180245075.

For at least one entry, the source does not settle the construct or the ends of the probe. For part of these data: No signal at the amounts used counts as a negative. Where a protein sequence is shown, tags need not be part of it.

What all share (assay): activity in cells
Data set [1] has as its target T1, HP1alpha CSD-DpnI binding domain (synR-HP1) (Streptococcus pneumoniae) (UniProt P0A459).
T1 sequence: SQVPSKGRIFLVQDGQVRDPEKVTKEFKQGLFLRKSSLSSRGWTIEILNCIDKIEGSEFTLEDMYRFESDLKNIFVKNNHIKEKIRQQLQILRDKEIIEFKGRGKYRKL
The conditions noted are these: N6-methyladenine at A of GATC; silencing of full-length CMV reporter with synI; protein in cells; protein details: HP1alpha chromo shadow domain, NLS; only the motif is given.

In data set [2] the target is T2, KRAB-DpnI binding domain (synR-KRAB) (Streptococcus pneumoniae) (UniProt P0A459).
T2 sequence: T1 sequence
The conditions noted are these: N6-methyladenine at A of GATC; silencing of full-length CMV reporter with synI; protein in cells; protein details: KRAB, NLS; only the motif is given.

The target in data set [3] is T3, DpnI binding domain-VP64 (synR-VP64) (Streptococcus pneumoniae) (UniProt P0A459).
T3 sequence: T1 sequence
The conditions noted are these: no significant activation without writer; protein in cells; protein details: NLS, VP64; only the motif is given.

“GATC (double strand) [adenine-methylated GATC sites of reporter]”: the functional effect result in data set [1] and in data set [2] was “active” throughout.

As to “GATC (double strand) [unmethylated GATC sites of reporter (no writer)]”, the functional effect result in data set [3] is “not active”.
